Measurements reported in PubChem BioAssay AID1259424 (University of Nebraska Medical Center, 2018)
Here is an unselected part of about 14,000 reagents tested. 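Higher correlation or smaller distance means closer resemblance to KSR1 loss; control wells, including KSR1 knockdowns, recur on many plates.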 Not all columns of the deposit are shown. The record does not give: the time to read-out.

Test: 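Find knockdowns that reproduce the expression shifts seen after KSR1 loss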 (primary screen)
System: human HCT116 colon cancer cells
Reagents: siRNA pool against human genes, 50 nM
Measurement: 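Six signature mRNAs by branched-DNA multiplex assay, scaled to two housekeeping genes and non-targeting median, log2; matched to mean KSR1 knockdown profile by Pearson correlation and euclidean distance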
Reading the numbers: mean correlation with KSR1 profile and KSR1 correlation: higher = expression change more like KSR1 knockdown; mean distance from KSR1 profile: higher = expression change less like KSR1 knockdown

target gene	mean correlation with KSR1 profile	mean distance from KSR1 profile	KSR1 correlation, replicate 1
PLIN2	-0.364	1.9	-0.256
ALKBH1	0.0586	1.55	-0.0974
ARPC5	-0.256	2.66	-0.3
SCP2	0.625	1.31	0.426
KCNIP3	0.579	1.09	0.856
B4GALT4	-0.929	2.52	-0.925
NDRG2	-0.259	1.49	-0.282
IKBKE	0.075	1.96	0.34
MAPK8IP2	0.727	2.8	0.78
RAB2B	-0.169	2.61	-0.011
CMBL	0.221	2.44	0.248
DLG5	0.507	1.76	0.517
IL25	-0.185	1.95	-0.546
AKAP5	0.378	2.09	0.618
FRK	-0.25	3.88	-0.328
CHORDC1	-0.885	2.3	-0.876
GJB2	-0.053	2.55	-0.131
HASPIN	0.336	2.64	0.434
VRK3	0.584	1.14	0.486
IFT57	-0.299	3.99	-0.28
GDAP1	-0.0591	1.32	0.0626
COX6A2	-0.329	4.61	-0.356
PPP1R26	-0.381	3.95	-0.146
PTENP1	-0.152	1.83	-0.0911
GRB7	-0.378	2.94	-0.616
S100A13	0.194	1.84	-0.184
FOXB1	0.249	3.04	-0.208
NFKBIZ	0.245	2.15	0.597
FOXL2	-0.141	2.84	-0.12
TNRC18	-0.771	3.85	-0.697
TMCO1	-0.617	1.75	-0.369
PPP1R8	-0.753	1.75	-0.644
SUSD4	-0.294	3.54	-0.265

5 of these entries in another layout:
| target gene | mean correlation with KSR1 profile | mean distance from KSR1 profile | KSR1 correlation, replicate 1 |
| --- | --- | --- | --- |
| RAB2B | -0.169 | 2.61 | -0.011 |
| CMBL | 0.221 | 2.44 | 0.248 |
| DLG5 | 0.507 | 1.76 | 0.517 |
| IL25 | -0.185 | 1.95 | -0.546 |
| AKAP5 | 0.378 | 2.09 | 0.618 |

More reagents follow.
target gene	mean correlation with KSR1 profile	mean distance from KSR1 profile	KSR1 correlation, replicate 1
CGNL1	-0.896	4.51	-0.288
PGGT1B	-0.463	2.86	-0.432
ACTR6	-0.402	2.76	-0.167
GRIK1	0.269	1.7	0.477
LINC00115	0.38	1.78	0.496
ETFA	-0.612	2.69	-0.393
NTRK2	-0.431	1.68	0.0195
HCAR3	0.801	1.24	0.692
MSX1	-0.506	2.1	-0.16
NUDT15	-0.288	1.35	-0.168
XG	0.287	1.55	-0.0714
BAIAP2L1	-0.0907	1.3	0.214
LAMC2	-0.0779	1.35	0.0367
PHRF1	-0.755	1.7	-0.626
CPSF1	-0.603	2.29	-0.655
TLN1	0.375	2.7	0.366
TEK	0.072	3.11	0.215
